Measured values reported in patent US11478478B2, “2,3-disubstituted 1-acyl-4-amino-1,2,3,4-tetrahydroquinoline derivatives and their use as bromodomain inhibitors” (GLAXOSMITHKLINE INTELLECTUAL PROPERTY (NO.2) LIMITED, priority 2013, dated 2022).
Where a name gives a salt, the structure may show the parent alone. Some results were stated once for a whole list of compounds, not compound by compound.

Molecular target: T1, BRD4 BD2 (Homo sapiens, UniProt O60885, Y97A)
T1 construct: BRD4 (1-477) (Y97A) and (Y390A); made in house; host or cells: E. coli (pET15b vector)
Assay: TR-FRET binding assay, BRD4 BD2 (BD1-mutated protein)
Details: BRD4 BD2 over BRD4 BD1; ≥1 log unit = at least 10 fold, ≥2 log unit = at least 100 fold selective
Protocol: Time Resolved Fluorescence Resonance Energy Transfer (TR-FRET) Assay Binding was assessed using a time resolved fluorescent resonance energy transfer binding assay. This utilises a 6 His purification tag at the N-terminal of the proteins as an epitope for an anti-6 His antibody labeled with Europium chelate (PerkinElmer AD0111) allowing binding of the Europium to the proteins which acts as the donor fluorophore. A small molecule, high affinity binder of the bromodomains BRD2, BRD3, BRD4 and BRDT has been labeled with Alexa Fluor647 (Reference Compound X) and this acts as the acceptor in the FRET pair.
In the absence of a competing compound, excitation of the Europium causes the donor to emit at λ618 nm which excites the Alexa labelled bromodomain binding compound leading to an increased energy transfer that is measurable at λ647 nM. In the presence of a sufficient concentration of a compound that can bind these proteins, the interaction is disrupted leading to a quantifiable drop in fluorescent resonance energy transfer.
The binding of the compounds of formula (I) to Bromodomains BRD2, BRD3, BRD4 and BRDT was assessed using mutated proteins to detect differential binding to either Binding Domain 1 (BD1) or Binding Domain 2 (BD2) on the bromodomain. These single residue mutations in the acetyl lysine binding pocket greatly lower the affinity of the fluoroligand (Reference Compound X) for the mutated domain (>1000 fold selective for the non-mutated domain). Therefore in the final assay conditions, binding of the fluoroligand to the mutated domain cannot be detected and subsequently the assay is suitable to determine the binding of compounds to the single non-mutated bromodomain.
Recombinant Human Bromodomains [(BRD2 (1-473) (Y113A) and (Y386A), BRD3 (1-435) (Y73A) and (Y348A) BRD4 (1-477) (Y97A) and (Y390A) and BRDT (1-397) (Y66A) and (Y309A)] were expressed in E. coli cells (in pET15b vector for BRD2/3/4 and in pET28a vector for BRDT) with a 6-His tag at the N-terminal. The His-tagged Bromodomain pellet was resuspended in 50 mM HEPES (pH7.5), 300 mM NaCl, 10 mM imidazole & 1 μl/ml protease inhibitor cocktail and extracted from the E. coli cells using sonication and purified using a nickel sepharose high performance column, the proteins were washed and then eluted with a linear gradient of 0-500 mM imidazole with buffer 50 mM HEPES (pH7.5), 150 mM NaCl, 500 mM imidazole, over 20 column volumes. Final purification was completed by Superdex 200 prep grade size exclusion column. Purified protein was stored at −80° C. in 20 mM HEPES pH 7.5 and 100 mM NaCl. Protein identity was confirmed by peptide mass fingerprinting and predicted molecular weight confirmed by mass spectrometry.
All assay components were dissolved in buffer composition of 50 mM HEPES pH7.4, 50 mM NaCl, 5% Glycerol, 1 mM DTT and 1 mM CHAPS. The final concentration of bromodomain proteins were 10 nM and the Alexa Fluor647 ligand was at Kd. These components were premixed and 5 μl of this reaction mixture was added to all wells containing 50 nl of various concentrations of test compound or DMSO vehicle (0.5% DMSO final) in Greiner 384 well black low volume microtitre plates and incubated in dark for 30 minutes at rt. 5 μl of detection mixture containing 1.5 nM final concentration anti-6His Europium chelate was added to all wells and a further dark incubation of at least 30 minutes was performed. Plates were then read on the Envision platereader, (λex=317 nm, donor λem=615 nm; acceptor λem=665 nm; Dichroic LANCE dual). Time resolved fluorescent intensity measurements were made at both emission wavelengths and the ratio of acceptor/donor was calculated and used for data analysis. All data was normalized to the mean of 16 high (inhibitor control—Example 11 of WO 2011/054846A1) and 16 low (DMSO) control wells on each plate. A four parameter curve fit of the following form was then applied: y=a+((b−a)/(1+(10^/10^)^d) […]

SMILES | Selectivity = BRD4 BD2 pIC50 − BRD4 BD1 pIC50 [log unit]
CC(=O)N1c2ccc(C(N)=O)cc2[C@H](Nc2cccc(C(C)O)n2)[C@@H](C)[C@@H]1C1CC1 (mixture of isomers) [Example 367, (2S,3R,4R)-1-acetyl-2-cyclopropyl-4-((6-(rac-1-hydroxyethyl)pyridin-2-yl)amino)-3-methyl-1,2,3,4-tetrahydroquinoline-6-carboxamide] | ≥ 2
COC(C)CNC(=O)c1ccc2c(c1)[C@H](Nc1cccc(C)n1)[C@@H](C)[C@H](C1CC1)N2C(C)=O (mixture of isomers) [Example 438, (2S,3R,4R)-1-acetyl-2-cyclopropyl-N-(rac-2-methoxypropyl)-3-methyl-4-((6-methylpyridin-2-yl)amino)-1,2,3,4-tetrahydroquinoline-6-carboxamide] | ≥ 2
COc1cccc(N[C@H]2c3ccccc3N(C(C)=O)[C@@H](C)[C@@H]2C)n1 (racemic) [Example 3, rac-1-((2S,3R,4R)-4-((6-methoxypyridin-2-yl)amino)-2,3-dimethyl-3,4-dihydroquinolin-1(2H)-yl)ethanone] | ≥ 2
CC(=O)N1c2ccccc2[C@H](Nc2ccccc2)[C@@H](C)[C@@H]1C1CC1 (racemic) [Example 26, rac-1-((2S,3R,4R)-2-cyclopropyyl-3-methyl-4-(phenylamino)-3,4-dihydroquinolin-1(2H)-yl)ethanone] | ≥ 2
CC(=O)N1c2ccccc2[C@H](Nc2cccc(C)n2)[C@@H](C)[C@@H]1C1CC1 (racemic) [Example 28, rac-1-((2S,3R,4R)-2-cyclopropyl-3-methyl-4-((6-methylpyridin-2-yl)amino)-3,4-dihydroquinolin-1(2H)-yl)ethanone] | ≥ 2
CC[C@H]1[C@H](C)[C@@H](Nc2cccc(C)n2)c2cc(F)ccc2N1C(C)=O (racemic) [Example 61, rac-1-((2S,3R,4R)-2-ethyl-6-fluoro-3-methyl-4-((6-methylpyridin-2-yl)amino)-3,4-dihydroquinolin-1(2H)-yl)ethanone] | ≥ 2
CC(=O)N1c2cc(F)ccc2[C@H](Nc2cccc(C)n2)[C@@H](C)[C@@H]1C1CC1 (racemic) [Example 63, rac-1-((2S,3R,4R)-2-cyclopropyl-7-fluoro-3-methyl-4-((6-methylpyridin-2-yl)amino)-3,4-dihydroquinolin-1(2H)-yl)ethanone] | ≥ 2
COc1ccc2c(c1)N(C(C)=O)[C@@H](C1CC1)[C@H](C)[C@H]2Nc1cccc(C)n1 (racemic) [Example 64, rac-1-((2S,3R,4R)-2-cyclopropyl-7-methoxy-3-methyl-4-((6-methylpyridin-2-yl)amino)-3,4-dihydroquinolin-1(2H)-yl)ethanone formic acid salt] | ≥ 2
CC(=O)N1c2ccc(C#N)cc2[C@H](Nc2cccc(C)n2)[C@@H](C)[C@@H]1C1CC1 (racemic) [Example 66, rac-(2S,3R,4R)-1-acetyl-2-cyclopropyl-3-methyl-4-((6-methylpyridin-2-yl)amino)-1,2,3,4-tetrahydroquinoline-6-carbonitrile] | ≥ 2
CC(=O)N1c2cnccc2[C@H](Nc2ccccc2)[C@@H](C)[C@@H]1C1CC1 (racemic) [Example 116, rac-1-((2S,3R,4R)-2-cyclopropyl-3-methyl-4-(phenylamino)-3,4-dihydro-1,7-naphthyridin-1(2H)-yl)ethanone] | ≥ 2
CC(=O)N1c2cnccc2[C@H](Nc2cccc(C)n2)[C@@H](C)[C@@H]1C1CC1 (racemic) [Example 117, rac-1-((2S,3R,4R)-2-cyclopropyl-3-methyl-4-((6-methylpyridin-2-yl)amino)-3,4-dihydro-1,7-naphthyridin-1(2H)-yl)ethanone] | ≥ 2
CC(=O)N1c2ccccc2[C@H](Oc2ccccc2)[C@@H](C)[C@@H]1C1CC1 (racemic) [Example 119, rac-1-((2S,3S,4R)-2-cyclopropyl-3-methyl-4-phenoxy-3,4-dihydroquinolin-1(2H)-yl)ethanone] | ≥ 2
CC(=O)N1c2ccccc2[C@H](Nc2cccc(CN)c2)[C@@H](C)[C@@H]1C1CC1 (racemic) [Example 124, rac-1-((2S,3R,4R)-4-((3-(aminomethyl)phenyl)amino)-2-cyclopropyl-3-methyl-3,4-dihydroquinolin-1(2H)-yl)ethanone, hydrochloride] | ≥ 2
CC(=O)N1c2ccc(C(N)=O)cc2[C@H](Nc2cccc(C)n2)[C@@H](C)[C@@H]1C1CC1 (racemic) [Example 133, rac-(2S,3R,4R)-1-acetyl-2-cyclopropyl-3-methyl-4-((6-methylpyridin-2-yl)amino)-1,2,3,4-tetrahydroquinoline-6-carboxamide] | ≥ 2
CC[C@H]1[C@H](C)[C@@H](Nc2cccc(OC)n2)c2cc(F)ccc2N1C(C)=O (racemic) [Example 152, rac-1-((2S,3R,4R)-2-ethyl-6-fluoro-4-((6-methoxypyridin-2-yl)amino)-3-methyl-3,4-dihydroquinolin-1(2H)-yl)ethanone] | ≥ 2
CC(=O)N1c2ccc(F)cc2[C@H](Nc2nccc(C)n2)[C@@H](C)[C@@H]1C1CC1 (racemic) [Example 158, rac-1-((2S,3R,4R)-2-cyclopropyl-6-fluoro-3-methyl-4-((4-methylpyrimidin-2-yl)amino)-3,4-dihydroquinolin-1(2H)-yl)ethanone] | ≥ 2
CC(=O)N1c2ccc(F)cc2[C@H](Nc2ccc(C#N)cc2)[C@@H](C)[C@@H]1C1CC1 (racemic) [Example 161, rac-4-(((2S,3R,4R)-1-acetyl-2-cyclopropyl-6-fluoro-3-methyl-1,2,3,4-tetrahydroquinolin-4-yl)amino)benzonitrile] | ≥ 2
CC(=O)N1c2ccc(F)cc2[C@H](Nc2cccc(C)n2)[C@@H](C)[C@@H]1C1CC1 (racemic) [Example 162, rac-1-((2S,3R,4R)-2-cyclopropyl-6-fluoro-3-methyl-4-((6-methylpyridin-2-yl)amino)-3,4-dihydroquinolin-1(2H)-yl)ethanone] | ≥ 2
COc1cccc(N[C@H]2c3cc(F)ccc3N(C(C)=O)[C@@H](C3CC3)[C@@H]2C)n1 (racemic) [Example 164, rac-1-((2S,3R,4R)-2-cyclopropyyl-6-fluoro-4-((6-methoxypyridin-2-yl)amino)-3-methyl-3,4-dihydroquinolin-1(2H)-yl)ethanone] | ≥ 2
COc1cccc(N[C@H]2c3cc(C4=CCNCC4)ccc3N(C(C)=O)[C@@H](C3CC3)[C@@H]2C)n1 (racemic) [Example 191, rac-1-((2S,3R,4R)-2-cyclopropyl-4-((6-methoxypyridin-2-yl)amino)-3-methyl-6-(1,2,3,6-tetrahydropyridin-4-yl)-3,4-dihydroquinolin-1(2H)-yl)ethanone] | ≥ 2
